Test results taken from publication PMC10786878.
These are yes or no findings as the source states them, for the method shown. In cells and extracts the contact can be indirect. A yes stands for co-enrichment or nearness to the bait. Other partners may have been found.

Sequences of proteins named here, by UniProt entry; tags and fusion partners are left off. A change or cut given only in a name is not applied to a line headed by its entry. Residues count along the entry.
UniProt P05305: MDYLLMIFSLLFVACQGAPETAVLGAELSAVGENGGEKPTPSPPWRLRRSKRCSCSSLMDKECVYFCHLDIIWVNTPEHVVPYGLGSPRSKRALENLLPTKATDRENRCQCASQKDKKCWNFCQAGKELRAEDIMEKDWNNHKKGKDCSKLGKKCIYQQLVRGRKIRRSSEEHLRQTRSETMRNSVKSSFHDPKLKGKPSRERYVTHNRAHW
UniProt P02751, residues 32-2477: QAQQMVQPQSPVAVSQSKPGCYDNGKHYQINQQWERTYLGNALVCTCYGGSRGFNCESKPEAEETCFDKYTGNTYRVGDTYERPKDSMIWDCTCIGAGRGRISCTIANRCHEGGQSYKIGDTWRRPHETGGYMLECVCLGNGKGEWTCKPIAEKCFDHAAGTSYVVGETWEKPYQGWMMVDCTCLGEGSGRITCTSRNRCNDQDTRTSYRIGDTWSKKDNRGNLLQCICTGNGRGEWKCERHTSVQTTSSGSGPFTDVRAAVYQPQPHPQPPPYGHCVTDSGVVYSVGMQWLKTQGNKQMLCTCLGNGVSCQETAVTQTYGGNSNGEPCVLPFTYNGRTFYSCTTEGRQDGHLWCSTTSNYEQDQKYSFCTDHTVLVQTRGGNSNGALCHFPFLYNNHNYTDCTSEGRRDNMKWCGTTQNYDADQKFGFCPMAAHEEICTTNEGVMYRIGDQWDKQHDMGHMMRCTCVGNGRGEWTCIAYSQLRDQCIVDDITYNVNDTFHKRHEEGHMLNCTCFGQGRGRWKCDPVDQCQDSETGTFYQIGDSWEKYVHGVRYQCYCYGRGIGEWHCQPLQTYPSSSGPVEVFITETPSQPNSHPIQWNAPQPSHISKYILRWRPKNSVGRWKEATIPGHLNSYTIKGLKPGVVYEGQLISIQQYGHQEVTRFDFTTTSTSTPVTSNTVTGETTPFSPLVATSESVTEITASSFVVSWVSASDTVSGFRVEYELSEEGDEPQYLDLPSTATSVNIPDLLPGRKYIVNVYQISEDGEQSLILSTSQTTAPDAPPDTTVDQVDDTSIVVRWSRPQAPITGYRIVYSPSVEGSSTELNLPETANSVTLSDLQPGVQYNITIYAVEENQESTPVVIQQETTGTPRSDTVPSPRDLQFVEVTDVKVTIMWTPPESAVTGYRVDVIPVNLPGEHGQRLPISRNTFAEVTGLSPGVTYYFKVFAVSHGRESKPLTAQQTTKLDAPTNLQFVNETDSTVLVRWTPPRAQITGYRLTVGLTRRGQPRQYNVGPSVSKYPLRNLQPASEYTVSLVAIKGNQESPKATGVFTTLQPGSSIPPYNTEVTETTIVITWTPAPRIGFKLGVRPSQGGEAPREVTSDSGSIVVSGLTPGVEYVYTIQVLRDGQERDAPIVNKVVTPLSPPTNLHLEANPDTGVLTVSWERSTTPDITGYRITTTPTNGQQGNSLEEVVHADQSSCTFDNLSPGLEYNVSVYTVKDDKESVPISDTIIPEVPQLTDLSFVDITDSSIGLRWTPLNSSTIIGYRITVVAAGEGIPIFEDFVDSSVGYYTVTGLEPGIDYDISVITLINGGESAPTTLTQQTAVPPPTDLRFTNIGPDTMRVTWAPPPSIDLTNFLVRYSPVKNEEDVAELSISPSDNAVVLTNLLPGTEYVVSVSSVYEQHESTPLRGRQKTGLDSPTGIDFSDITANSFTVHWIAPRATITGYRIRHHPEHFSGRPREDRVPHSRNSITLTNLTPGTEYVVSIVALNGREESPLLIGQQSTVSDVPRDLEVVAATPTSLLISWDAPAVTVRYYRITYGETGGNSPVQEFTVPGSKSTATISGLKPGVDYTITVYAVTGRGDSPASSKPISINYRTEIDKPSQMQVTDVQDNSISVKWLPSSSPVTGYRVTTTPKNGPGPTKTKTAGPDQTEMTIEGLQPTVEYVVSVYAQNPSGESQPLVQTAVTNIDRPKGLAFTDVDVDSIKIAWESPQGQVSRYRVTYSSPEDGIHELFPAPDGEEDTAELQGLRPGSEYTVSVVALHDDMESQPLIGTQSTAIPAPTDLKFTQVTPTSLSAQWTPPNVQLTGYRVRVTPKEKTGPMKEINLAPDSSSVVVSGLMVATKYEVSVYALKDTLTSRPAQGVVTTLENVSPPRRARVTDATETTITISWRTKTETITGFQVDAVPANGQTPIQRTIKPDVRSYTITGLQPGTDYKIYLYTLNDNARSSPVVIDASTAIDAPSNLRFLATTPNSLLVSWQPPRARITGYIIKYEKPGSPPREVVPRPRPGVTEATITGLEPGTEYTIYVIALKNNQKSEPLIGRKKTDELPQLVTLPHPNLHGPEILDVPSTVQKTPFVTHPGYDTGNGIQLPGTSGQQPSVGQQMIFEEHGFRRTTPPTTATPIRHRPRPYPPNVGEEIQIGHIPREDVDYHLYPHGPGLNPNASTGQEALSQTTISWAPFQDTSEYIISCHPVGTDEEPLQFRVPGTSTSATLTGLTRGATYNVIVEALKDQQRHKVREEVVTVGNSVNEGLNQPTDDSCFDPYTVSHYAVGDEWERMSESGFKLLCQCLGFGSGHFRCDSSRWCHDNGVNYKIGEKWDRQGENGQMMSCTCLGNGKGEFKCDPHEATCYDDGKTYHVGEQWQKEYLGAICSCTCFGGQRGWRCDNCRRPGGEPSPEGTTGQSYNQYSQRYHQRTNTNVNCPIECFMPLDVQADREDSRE
UniProt P28300: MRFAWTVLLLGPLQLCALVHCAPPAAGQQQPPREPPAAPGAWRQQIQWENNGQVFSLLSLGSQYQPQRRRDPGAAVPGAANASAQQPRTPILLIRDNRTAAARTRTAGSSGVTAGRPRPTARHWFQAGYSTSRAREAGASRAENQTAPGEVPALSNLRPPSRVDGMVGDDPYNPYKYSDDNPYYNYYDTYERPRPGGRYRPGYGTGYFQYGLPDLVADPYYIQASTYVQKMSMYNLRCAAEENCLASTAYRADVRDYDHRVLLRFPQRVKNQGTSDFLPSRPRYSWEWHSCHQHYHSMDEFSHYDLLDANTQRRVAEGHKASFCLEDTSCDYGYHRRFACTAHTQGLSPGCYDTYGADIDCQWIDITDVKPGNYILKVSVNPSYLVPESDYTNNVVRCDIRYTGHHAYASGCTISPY
UniProt P27816: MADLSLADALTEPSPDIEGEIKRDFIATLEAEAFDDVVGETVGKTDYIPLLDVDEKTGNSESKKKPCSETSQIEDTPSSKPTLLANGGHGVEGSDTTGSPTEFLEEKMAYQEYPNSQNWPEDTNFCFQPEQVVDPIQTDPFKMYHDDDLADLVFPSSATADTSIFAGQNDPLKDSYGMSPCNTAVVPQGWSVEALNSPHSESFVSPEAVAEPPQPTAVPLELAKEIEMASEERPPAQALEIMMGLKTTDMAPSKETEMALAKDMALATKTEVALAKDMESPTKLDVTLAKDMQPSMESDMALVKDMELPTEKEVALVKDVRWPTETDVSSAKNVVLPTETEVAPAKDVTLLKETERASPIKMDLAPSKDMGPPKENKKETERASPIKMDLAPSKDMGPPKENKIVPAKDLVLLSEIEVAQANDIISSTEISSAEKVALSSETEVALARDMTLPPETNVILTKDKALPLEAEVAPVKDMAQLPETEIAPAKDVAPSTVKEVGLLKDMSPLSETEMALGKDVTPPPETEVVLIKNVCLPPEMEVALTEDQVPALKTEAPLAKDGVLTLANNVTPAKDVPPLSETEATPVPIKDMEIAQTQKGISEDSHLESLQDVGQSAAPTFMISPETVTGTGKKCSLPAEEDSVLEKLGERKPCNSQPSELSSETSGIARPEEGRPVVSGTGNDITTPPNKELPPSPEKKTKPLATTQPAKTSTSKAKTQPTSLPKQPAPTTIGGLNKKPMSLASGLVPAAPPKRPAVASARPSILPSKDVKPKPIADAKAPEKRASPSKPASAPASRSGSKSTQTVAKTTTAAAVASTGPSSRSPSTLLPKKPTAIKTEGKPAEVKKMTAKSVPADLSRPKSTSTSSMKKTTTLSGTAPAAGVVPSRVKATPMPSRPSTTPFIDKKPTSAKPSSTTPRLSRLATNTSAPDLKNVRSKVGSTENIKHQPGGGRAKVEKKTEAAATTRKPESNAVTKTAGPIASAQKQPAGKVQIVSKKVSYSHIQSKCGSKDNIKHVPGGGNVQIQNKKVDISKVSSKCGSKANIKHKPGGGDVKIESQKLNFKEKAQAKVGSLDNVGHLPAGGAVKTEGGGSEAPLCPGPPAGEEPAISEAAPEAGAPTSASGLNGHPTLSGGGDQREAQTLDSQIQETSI
UniProt P11387: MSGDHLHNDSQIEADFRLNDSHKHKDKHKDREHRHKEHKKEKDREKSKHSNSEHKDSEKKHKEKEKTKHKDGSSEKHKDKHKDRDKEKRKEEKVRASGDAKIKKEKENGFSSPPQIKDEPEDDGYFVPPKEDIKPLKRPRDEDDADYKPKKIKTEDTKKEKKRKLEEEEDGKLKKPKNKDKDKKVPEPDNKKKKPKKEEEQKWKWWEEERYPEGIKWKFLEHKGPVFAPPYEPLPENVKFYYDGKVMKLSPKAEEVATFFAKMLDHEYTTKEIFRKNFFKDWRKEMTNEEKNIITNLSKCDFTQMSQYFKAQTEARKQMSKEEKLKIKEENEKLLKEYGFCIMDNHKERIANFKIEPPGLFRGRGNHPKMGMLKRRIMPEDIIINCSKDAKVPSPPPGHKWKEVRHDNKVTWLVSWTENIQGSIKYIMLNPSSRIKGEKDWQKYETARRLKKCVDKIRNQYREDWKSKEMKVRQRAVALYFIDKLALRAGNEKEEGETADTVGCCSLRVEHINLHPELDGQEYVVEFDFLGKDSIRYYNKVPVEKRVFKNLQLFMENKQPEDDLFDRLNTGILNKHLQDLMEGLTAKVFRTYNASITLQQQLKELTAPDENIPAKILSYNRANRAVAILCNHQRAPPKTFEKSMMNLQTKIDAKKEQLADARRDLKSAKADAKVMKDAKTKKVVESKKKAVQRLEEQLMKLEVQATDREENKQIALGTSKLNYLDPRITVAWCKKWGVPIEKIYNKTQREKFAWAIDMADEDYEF

Assays:
[1] = biological target: T1, JCAD (human (endogenous in HAEC and HCASMC)) (UniProt Q9P266); experiment: affinity purification with mass spectrometry; IP of the index protein (antibody to the endogenous bait vs isotype IgG, or anti-FLAG M2 beads for the 3xFLAG-tagged bait vs mock transfection) from HAEC (EC) lysate, overnight at 4 °C; iTRAQ or TMT LC-MS/MS; interactor: log2 FC >0 and FDR ≤0.1
T1 sequence: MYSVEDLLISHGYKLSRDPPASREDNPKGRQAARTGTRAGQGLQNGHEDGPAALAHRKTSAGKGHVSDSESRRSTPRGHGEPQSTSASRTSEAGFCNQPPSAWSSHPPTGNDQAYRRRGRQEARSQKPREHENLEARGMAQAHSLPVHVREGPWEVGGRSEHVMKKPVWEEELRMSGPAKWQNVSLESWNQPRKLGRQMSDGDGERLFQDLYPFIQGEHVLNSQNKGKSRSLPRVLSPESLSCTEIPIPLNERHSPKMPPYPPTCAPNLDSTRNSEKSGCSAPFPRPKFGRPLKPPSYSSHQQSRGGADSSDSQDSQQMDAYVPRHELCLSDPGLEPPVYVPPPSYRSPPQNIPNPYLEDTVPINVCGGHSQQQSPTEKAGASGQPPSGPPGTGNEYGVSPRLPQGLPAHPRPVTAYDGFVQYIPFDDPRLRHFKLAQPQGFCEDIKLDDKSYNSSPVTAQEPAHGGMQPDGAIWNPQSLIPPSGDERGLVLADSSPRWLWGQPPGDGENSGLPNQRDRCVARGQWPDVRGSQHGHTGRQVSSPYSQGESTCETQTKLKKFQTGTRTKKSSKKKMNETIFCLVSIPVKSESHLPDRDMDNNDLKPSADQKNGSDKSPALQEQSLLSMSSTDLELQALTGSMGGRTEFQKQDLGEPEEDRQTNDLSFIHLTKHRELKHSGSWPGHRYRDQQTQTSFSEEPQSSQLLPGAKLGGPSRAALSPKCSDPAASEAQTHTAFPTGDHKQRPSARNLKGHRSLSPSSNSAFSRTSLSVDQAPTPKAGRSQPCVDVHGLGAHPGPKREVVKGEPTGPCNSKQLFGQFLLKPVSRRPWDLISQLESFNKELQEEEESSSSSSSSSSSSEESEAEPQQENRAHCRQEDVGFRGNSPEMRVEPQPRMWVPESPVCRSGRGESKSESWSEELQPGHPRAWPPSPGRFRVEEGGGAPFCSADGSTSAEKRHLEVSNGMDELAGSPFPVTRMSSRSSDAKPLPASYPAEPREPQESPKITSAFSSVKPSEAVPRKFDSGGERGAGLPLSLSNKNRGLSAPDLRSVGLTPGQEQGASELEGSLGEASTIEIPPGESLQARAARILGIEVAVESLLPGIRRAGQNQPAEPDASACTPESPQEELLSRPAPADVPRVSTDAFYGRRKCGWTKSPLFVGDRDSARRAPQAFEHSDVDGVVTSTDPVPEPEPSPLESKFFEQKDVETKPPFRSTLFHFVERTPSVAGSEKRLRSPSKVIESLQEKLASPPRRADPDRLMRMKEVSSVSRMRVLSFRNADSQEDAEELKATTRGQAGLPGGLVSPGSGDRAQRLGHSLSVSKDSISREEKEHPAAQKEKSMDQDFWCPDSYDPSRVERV

PLPP3 (human) [2] = biological target: T2, PLPP3 (human) (UniProt O14495); experiment: as above
T2 sequence: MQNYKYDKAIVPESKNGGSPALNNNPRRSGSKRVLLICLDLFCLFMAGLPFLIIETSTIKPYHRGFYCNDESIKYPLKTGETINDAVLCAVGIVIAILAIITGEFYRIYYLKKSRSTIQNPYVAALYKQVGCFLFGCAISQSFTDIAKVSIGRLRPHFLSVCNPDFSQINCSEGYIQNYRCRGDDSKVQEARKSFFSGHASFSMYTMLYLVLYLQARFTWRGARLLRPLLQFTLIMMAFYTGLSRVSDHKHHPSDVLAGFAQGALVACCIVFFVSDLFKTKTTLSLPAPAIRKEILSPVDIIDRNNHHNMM

EDN1 (human) [3] = biological target: EDN1 (human) (UniProt P05305); experiment: affinity purification with mass spectrometry; IP of the index protein (antibody to the endogenous bait vs isotype IgG, or anti-FLAG M2 beads for the 3xFLAG-tagged bait vs mock transfection) from HCASMC (SMC) lysate, overnight at 4 °C; iTRAQ or TMT LC-MS/MS; interactor: log2 FC >0 and FDR ≤0.1
PLPP3 (human) [4] = biological target: T2, PLPP3 (human); experiment: as above
EDN1 (human) [5] = biological target: EDN1 (human) (UniProt P05305); experiment: affinity purification with mass spectrometry; IP of the index protein from HAEC or HCASMC lysate; the sentence does not tell in which of the two cell types the interactor was found; interactor: log2 FC >0 and FDR ≤0.1

| Substance | binding (EDN1 (human) [3]) | binding (EDN1 (human) [5]) | also measured |
| --- | --- | --- | --- |
| FLNC (from UniProt Q14315 1-2725) |  |  | binding [1]: binds |
| FN1 (from UniProt P02751 32-2477) | binds |  | binding (PLPP3 (human) [2]): binds; binding (PLPP3 (human) [4]): binds |
| LOX (from UniProt P28300) | binds |  |  |
| MAP4 (from UniProt P27816 1-1152) |  | binds |  |
| TOP1 (from UniProt P11387 1-765) |  | binds |  |
